Where a chain is given by its changes, count along the chain named. These are yes or no findings as the source states them, for the method shown. Some binding calls cover weakened binding; strength is not graded here. Sequences can lack the tags named with a protein.

By UniProt entry, the sequences of proteins in these tests, tags left out. Where a name states a change or a piece, a line headed by the entry shows the natural chain unless it says otherwise.
UniProt P39705: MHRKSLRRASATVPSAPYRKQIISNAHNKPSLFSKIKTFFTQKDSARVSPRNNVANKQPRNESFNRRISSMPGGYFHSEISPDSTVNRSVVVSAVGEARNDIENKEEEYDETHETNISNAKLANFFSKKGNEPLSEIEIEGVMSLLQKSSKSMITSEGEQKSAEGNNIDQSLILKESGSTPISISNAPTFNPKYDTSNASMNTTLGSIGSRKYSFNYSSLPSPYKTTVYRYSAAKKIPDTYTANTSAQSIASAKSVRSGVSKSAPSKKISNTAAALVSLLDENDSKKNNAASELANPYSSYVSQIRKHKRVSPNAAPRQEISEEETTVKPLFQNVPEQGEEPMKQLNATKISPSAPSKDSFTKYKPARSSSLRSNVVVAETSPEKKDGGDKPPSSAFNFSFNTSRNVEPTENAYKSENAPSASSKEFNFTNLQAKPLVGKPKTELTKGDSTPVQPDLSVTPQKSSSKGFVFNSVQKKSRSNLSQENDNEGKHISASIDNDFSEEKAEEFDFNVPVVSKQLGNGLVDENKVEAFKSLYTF

Common to all, as to test: two-hybrid
The target of test [1] is T1, mar(89-130), Nup2 amino acids 89-130, two-hybrid bait (Saccharomyces cerevisiae) (UniProt P32499).
T1 sequence: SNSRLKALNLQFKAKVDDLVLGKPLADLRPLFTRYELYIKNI

Test [2] concerns the target T2, Nup2 MAR K101E, Gal4 DNA binding domain fusion (Saccharomyces cerevisiae) (UniProt P32499).
T2 sequence: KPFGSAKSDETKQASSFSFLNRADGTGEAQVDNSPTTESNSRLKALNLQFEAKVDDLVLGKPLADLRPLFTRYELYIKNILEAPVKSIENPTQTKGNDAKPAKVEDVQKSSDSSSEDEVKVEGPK

In test [3] the target is T3, Nup2 MAR F120Y, Gal4 DNA binding domain fusion (Saccharomyces cerevisiae) (UniProt P32499).
T3 sequence: T2 sequence with E51K, F70Y

Turning to “Nup60(188-388), Gal4 activation domain fusion (from UniProt P39705 188-388) (domain or fragment)”, the binding result in test [1], in test [2] and in test [3] was “no binding” throughout.
For the substance “full-length Nup60, Gal4 activation domain fusion (from UniProt P39705 1-539)”, the binding entry in test [2] and in test [3] was “binds” each time.

For the origin of these results see doi:10.1101/2021.10.12.463977.
